Reference: article PMC2685736, “Conservation of a conformational switch in RadA recombinase from Methanococcus maripaludis” (Acta Crystallographica Section D: Biological Crystallography, 2009)
Results are given in words; binding and its absence hold for the method and conditions named. Some binding calls cover weakened binding; strength is not graded here.

Target: RadA recombinase from Methanococcus maripaludis (Methanococcus maripaludis) (UniProt P0CW58)
Test: crystal structure; MmRadA (~1 mM) with 2 mM AMPPNP; hanging drop, 6-8% PEG 3350, 50 mM MgCl2, 50 mM Tris-HCl pH 7.9, 0.1-0.4 M monovalent salt (NaCl, KCl, RbCl or NH4Cl); space group P6_1, helical filament along the c axis (pitch 107.1-108.5 A); ATPase-active and inactive conformations; both purified

B1: RadA recombinase from Methanococcus maripaludis (enzyme, UniProt P0CW58 1-322)
chain: MADVLTELPGVGPSTADKLIEGGYLDFMKIATATIGELTDIEGISEKAAAKMIMAARDLCDLGFKSGVELLKQRQSVWRLSTGSTELGTVLAGGIESQSVTEFAGMFGSGKTQIMHQTCVNLQMREKIFADLEGVVEEELEAPKAVYIDTEGTFRPERVVQMAEGAGIDGQTVLDNTFVARAYNSDMQMLFAEKIEDLIKGGNNIKLVIIDSLTSTFRNEFTGRGKLAERQQKLGRHMATLNKLADLYNCIVLVTNQVAAKPDAYFGVAEQAIGGHVVGHAATFRFFLRKSKGDKRVAKLYDSPHLPDSEAVFRITEKGIQD
B1 was tested, and the binding was “binds”.
